Experimental data reported in paper PMC3556126, “The site-specific integration reaction of Listeria phage A118 integrase, a serine recombinase”.
A weaker result is weaker than the reference pair of the same experiment. Tags and fusion partners may be left off the protein sequences shown.

Molecular target: T1, A118 integrase C-terminal domain (HisInt158-452) (Listeria monocytogenes phage A118) (UniProt Q8Y4U8)
T1 sequence (looked up): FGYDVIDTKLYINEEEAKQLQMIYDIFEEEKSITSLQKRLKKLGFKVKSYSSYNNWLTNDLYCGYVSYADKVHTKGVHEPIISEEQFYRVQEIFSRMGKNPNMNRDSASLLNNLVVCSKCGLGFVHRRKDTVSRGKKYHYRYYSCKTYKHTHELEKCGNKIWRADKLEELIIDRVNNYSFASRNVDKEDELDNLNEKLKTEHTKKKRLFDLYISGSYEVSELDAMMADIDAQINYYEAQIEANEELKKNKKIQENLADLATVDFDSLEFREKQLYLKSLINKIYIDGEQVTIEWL
Experiment: EMSA
Details: 810 nM, weak monomer binding; 20 mM HEPES pH 7.5, 100 mM NaCl, 0.1 mg/ml BSA, 5 mM spermidine, 5 mM DTT, 5% glycerol, 50 ug/ml salmon sperm DNA, about 0.1 pmol probe in 10 ul, 30 C 30 min; recombinant protein; residues 158-452; protein details: N-terminal His (pET15b); label: 32P

Q: Does “TTTAGTTCCTCGTTTTCTCTCGTTGGACTCCTCCTCGCTCGTCCCAGCCC (double strand) [attP Po- half-site]” bind?
A: binds more weakly
